In data set [1] the target is T1, DExH1 (lysate) (Arabidopsis thaliana) (UniProt F4ILR7).
T1 sequence (looked up, limits assumed): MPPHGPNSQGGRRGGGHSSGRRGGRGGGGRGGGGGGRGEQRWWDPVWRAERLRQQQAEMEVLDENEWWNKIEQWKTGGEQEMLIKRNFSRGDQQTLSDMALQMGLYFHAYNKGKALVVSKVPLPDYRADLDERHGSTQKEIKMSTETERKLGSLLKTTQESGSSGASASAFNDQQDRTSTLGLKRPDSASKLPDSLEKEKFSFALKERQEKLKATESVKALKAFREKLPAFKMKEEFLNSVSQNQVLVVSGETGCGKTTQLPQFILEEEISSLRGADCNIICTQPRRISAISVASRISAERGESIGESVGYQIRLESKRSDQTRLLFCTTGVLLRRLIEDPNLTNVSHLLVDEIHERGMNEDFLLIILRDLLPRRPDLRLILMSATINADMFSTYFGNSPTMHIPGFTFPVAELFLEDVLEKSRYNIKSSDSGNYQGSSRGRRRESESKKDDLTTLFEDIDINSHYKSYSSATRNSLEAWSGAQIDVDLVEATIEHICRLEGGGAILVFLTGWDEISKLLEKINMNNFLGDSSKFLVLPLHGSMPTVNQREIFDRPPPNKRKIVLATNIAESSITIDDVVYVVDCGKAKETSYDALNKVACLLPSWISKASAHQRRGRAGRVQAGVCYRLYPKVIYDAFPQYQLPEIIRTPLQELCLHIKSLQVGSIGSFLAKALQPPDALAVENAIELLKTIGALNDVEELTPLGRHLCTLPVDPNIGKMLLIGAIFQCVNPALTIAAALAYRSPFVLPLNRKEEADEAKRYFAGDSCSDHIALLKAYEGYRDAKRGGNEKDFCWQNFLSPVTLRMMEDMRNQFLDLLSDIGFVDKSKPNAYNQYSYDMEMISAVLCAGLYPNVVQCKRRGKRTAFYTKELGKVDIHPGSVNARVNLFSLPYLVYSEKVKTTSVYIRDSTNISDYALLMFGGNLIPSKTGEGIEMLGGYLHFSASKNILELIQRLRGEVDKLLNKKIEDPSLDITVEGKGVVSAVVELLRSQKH
Kind of data set: pull-down. The note with it: LC-MS/MS, compared with U15 ssRNA; pull-down: 20 mM Tris-HCl pH 7.5, 300 mM KCl, 0.1% Tween-20, 2 mM EDTA, RNase inhibitor, 4 °C 4 h; protein in an extract; label: 3'-biotin.

Amino acid sequences for entries named in this document (tags omitted). Residues count along the entry.
UniProt P41376, 2-412: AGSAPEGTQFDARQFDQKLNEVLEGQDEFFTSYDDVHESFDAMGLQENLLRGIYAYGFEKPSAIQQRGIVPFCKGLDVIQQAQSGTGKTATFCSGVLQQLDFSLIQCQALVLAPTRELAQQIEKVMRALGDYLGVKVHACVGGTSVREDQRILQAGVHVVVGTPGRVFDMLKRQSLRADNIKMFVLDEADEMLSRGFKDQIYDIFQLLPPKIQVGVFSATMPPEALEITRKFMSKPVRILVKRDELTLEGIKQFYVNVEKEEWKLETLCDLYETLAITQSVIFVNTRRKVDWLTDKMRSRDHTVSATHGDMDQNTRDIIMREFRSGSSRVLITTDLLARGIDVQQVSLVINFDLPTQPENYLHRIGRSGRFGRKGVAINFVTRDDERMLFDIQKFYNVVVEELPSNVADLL
UniProt P41376, whole entry: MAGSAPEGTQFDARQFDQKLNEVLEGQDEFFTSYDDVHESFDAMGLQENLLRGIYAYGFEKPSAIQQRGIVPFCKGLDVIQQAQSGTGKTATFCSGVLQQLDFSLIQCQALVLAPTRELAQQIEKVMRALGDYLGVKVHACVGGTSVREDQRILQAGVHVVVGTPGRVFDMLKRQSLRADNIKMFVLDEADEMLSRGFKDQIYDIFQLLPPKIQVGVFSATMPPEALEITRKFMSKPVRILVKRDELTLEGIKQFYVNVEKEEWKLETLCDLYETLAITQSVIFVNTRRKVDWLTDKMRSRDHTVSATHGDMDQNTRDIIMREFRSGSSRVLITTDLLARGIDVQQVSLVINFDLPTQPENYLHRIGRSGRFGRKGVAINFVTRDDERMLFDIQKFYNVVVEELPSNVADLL

Data set [2] addresses T2, DExH15 (lysate) (Arabidopsis thaliana) (UniProt B9DFG3).
T2 sequence (looked up, limits assumed): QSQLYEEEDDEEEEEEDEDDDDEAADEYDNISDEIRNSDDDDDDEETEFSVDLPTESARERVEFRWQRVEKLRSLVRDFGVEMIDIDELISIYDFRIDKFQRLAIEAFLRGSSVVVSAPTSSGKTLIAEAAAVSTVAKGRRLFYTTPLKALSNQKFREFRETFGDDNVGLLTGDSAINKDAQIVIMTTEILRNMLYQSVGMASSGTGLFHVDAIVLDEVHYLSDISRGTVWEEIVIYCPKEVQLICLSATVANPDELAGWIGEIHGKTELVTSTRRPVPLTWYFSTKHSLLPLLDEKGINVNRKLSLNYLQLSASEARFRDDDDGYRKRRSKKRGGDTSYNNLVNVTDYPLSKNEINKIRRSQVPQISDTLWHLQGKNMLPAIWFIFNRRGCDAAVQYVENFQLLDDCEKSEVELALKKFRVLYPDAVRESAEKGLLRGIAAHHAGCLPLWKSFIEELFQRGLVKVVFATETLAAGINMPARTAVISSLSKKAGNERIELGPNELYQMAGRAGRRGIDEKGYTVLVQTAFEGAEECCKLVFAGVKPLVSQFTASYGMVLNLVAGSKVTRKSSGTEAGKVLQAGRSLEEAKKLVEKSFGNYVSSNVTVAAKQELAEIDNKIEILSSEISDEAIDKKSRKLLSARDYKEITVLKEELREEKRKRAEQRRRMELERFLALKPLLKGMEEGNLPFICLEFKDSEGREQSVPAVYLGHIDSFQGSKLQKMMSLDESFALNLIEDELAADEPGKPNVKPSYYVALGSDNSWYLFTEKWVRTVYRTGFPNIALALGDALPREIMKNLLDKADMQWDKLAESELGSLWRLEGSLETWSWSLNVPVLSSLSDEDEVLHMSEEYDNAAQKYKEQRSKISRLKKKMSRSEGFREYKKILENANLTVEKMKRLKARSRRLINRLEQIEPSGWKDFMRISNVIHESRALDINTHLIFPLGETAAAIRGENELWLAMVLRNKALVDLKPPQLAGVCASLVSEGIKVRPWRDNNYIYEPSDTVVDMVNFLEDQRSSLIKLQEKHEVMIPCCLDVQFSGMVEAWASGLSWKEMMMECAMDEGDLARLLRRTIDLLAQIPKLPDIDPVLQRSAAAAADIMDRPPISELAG
Kind of data set: pull-down. The note with it: LC-MS/MS, compared with U15 ssRNA; pull-down: 20 mM Tris-HCl pH 7.5, 300 mM KCl, 0.1% Tween-20, 2 mM EDTA, RNase inhibitor, 4 °C 4 h; protein in an extract; label: 3'-biotin.

The target in data set [3] is T3, RH3 (lysate) (Arabidopsis thaliana) (UniProt Q8L7S8).
T3 sequence (looked up, limits assumed): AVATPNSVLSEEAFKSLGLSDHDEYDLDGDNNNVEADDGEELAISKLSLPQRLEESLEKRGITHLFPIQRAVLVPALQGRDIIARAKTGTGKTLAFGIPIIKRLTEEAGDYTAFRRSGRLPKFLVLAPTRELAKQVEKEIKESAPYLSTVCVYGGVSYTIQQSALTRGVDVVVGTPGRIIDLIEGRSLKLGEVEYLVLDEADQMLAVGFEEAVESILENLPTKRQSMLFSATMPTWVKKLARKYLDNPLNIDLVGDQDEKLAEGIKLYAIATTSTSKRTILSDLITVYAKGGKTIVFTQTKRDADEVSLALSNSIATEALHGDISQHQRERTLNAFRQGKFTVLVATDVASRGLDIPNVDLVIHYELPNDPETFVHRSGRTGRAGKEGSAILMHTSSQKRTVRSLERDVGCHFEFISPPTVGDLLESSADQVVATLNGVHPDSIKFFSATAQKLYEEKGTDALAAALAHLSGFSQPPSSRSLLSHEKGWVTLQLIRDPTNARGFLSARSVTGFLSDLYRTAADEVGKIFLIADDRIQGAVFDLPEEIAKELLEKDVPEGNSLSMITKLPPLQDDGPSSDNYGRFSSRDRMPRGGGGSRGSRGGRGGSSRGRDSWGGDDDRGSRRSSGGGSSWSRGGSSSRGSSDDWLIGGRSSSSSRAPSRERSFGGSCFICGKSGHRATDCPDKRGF
The data set is described as follows: pull-down. The note with it: LC-MS/MS, compared with U15 ssRNA; pull-down: 20 mM Tris-HCl pH 7.5, 300 mM KCl, 0.1% Tween-20, 2 mM EDTA, RNase inhibitor, 4 °C 4 h; protein in an extract; label: 3'-biotin.

In data set [4] the target is T4, RH53 (lysate) (Arabidopsis thaliana) (UniProt Q9LUW5).
T4 sequence (looked up, limits assumed): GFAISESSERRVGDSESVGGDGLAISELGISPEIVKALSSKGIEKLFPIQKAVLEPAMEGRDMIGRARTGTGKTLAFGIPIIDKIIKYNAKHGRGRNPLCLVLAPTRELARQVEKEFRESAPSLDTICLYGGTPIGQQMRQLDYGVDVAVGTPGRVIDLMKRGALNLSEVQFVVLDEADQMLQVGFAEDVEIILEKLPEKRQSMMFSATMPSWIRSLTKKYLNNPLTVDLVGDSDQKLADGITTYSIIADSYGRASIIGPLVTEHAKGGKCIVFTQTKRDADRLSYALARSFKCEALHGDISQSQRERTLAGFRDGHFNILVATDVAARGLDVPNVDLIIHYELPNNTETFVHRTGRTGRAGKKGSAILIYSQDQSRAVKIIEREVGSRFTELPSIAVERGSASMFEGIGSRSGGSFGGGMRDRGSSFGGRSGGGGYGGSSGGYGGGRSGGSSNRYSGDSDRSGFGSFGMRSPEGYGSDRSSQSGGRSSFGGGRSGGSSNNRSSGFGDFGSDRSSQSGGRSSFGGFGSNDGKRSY
The data set is described as follows: pull-down. To be noted: LC-MS/MS, compared with U15 ssRNA; pull-down: 20 mM Tris-HCl pH 7.5, 300 mM KCl, 0.1% Tween-20, 2 mM EDTA, RNase inhibitor, 4 °C 4 h; protein in an extract; label: 3'-biotin.

Data set [5] concerns the target eIF4A (lysate) (Arabidopsis thaliana) (UniProt P41376). The data set is described as follows: pull-down. To be noted: LC-MS/MS, compared with U15 ssRNA; pull-down: 20 mM Tris-HCl pH 7.5, 300 mM KCl, 0.1% Tween-20, 2 mM EDTA, RNase inhibitor, 4 °C 4 h; protein in an extract; label: 3'-biotin.
Data set [6] addresses T5, RH3 (Arabidopsis thaliana) (UniProt Q8L7S8).
T5 sequence (looked up): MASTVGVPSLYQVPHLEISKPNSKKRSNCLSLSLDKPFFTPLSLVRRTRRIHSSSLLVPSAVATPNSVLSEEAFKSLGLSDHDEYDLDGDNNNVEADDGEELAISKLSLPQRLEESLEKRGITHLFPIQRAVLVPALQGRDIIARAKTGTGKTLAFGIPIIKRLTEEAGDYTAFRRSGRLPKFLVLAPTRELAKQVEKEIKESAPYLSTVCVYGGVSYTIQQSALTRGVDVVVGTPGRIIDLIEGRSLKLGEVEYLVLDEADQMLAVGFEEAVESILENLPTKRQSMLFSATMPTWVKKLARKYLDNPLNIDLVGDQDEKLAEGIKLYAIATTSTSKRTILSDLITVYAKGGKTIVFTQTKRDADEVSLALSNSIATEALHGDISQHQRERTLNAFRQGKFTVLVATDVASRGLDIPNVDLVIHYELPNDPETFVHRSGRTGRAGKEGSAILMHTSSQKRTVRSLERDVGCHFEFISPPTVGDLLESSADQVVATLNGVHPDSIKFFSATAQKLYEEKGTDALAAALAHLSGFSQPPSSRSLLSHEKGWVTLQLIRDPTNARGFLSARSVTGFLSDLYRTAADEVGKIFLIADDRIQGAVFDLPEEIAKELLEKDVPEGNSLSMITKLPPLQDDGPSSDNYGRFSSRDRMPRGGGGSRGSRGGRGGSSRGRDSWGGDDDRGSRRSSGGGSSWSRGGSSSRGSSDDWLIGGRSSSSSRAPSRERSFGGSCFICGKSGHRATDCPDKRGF
The data set is described as follows: MST. The note with it: EC50 only in figure; MST: 20 nM FAM-RNA; recombinant protein; residues 1-748; protein details: N-terminal 6xHis-SUMO (retained); label: 3'-FAM.

Data set [7] has as its target T6, RH53 (Arabidopsis thaliana) (UniProt Q9LUW5).
T6 sequence (looked up): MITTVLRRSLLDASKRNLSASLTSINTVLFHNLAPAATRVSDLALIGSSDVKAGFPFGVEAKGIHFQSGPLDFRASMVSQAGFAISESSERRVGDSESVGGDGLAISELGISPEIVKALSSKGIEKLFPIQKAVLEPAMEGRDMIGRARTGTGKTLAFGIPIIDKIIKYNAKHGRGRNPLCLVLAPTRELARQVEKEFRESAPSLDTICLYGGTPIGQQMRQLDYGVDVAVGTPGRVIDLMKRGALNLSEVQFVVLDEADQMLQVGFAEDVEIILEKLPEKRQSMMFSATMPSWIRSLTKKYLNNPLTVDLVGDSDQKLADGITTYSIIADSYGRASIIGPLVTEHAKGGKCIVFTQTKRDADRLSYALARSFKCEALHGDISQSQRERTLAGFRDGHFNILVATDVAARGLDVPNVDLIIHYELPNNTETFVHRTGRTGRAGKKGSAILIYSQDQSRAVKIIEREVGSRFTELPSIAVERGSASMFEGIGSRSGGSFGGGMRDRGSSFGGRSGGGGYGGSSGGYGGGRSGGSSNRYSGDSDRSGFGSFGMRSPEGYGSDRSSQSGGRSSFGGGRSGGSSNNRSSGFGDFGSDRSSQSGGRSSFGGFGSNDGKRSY
The data set is described as follows: MST. To be noted: EC50 only in figure; MST: 20 nM FAM-RNA; recombinant protein; residues 1-616; protein details: N-terminal 6xHis-SUMO (retained); label: 3'-FAM.

Another data set has as its system SUMO tag. Kind of data set: MST. The note with it: tag-only control; MST: 20 nM FAM-RNA; recombinant protein; label: 3'-FAM.
Data set [8] has as its target eIF4A (eIF4A1) (Arabidopsis thaliana) (UniProt P41376). Kind of data set: MST. The note with it: EC50 only in figure; MST: 20 nM FAM-RNA; recombinant protein; residues 1-412; protein details: 6xHis-SUMO removed; label: 3'-FAM.

For at least one entry, the source does not settle the construct or the ends of the probe. For part of these data: No signal at the amounts used counts as a negative. For part of these data: At least one result comes from cells or an extract, where the contact may be indirect. For part of these data: Tags and fusion partners may be left off the protein sequences shown. For part of these data: At least one verdict rests on a figure or table, not on a statement of the authors.

As for “GAGGGAGGGAAGGGGAAGGGGUAAUUUUUUUUUUUUUUU [G4RNA15Ubiotin]”, the binding result in [1], in data set [2], in data set [3], in data set [4] and in data set [5] was “binds” in each case.

Regarding “GGGAGGGAAGGGGAAGGGGUUUUUUUUUUUUUUU [G4S (3' tail rG4)]”, the binding result in data set [6] is “binds”; in [7], “binds”; in the data set with SUMO tag, “no binding”; in [8], “binds”.

The values are drawn from PMC9293640, “Insights into the structural dynamics and helicase-catalyzed unfolding of plant RNA G-quadruplexes”.
